According to US12589143B2, “Human anti-PD-L1 peptide vaccines and methods of their use” (priority 2019, dated 2026):
Some entries share one result that the patent states for a list of compounds.

System: MVF-PD-L1 peptides
Experiment: Immunogenicity in rabbits: ELISA antibody titers of sera vs the immunogen
Type: in vivo, New Zealand White rabbits
Conditions: after the second boost
Experimental: Immunogenicity of MVF-PD-L1 B-cell epitopes. New Zealand White rabbits were immunized with 1 mg of each MVF-peptide immunogens dissolved in dd H2O emulsified (1:1) in Montanide ISA 720 vehicle (Seppic) with 333 μg of N-acetylglucosamine-3yl-acetyl-1-alanyl-d-isoglutamine (nor-MDP). Rabbits were boosted with the same doses at 3-week's intervals. Blood was collected via the central auricular artery in rabbits. Blood was collected weekly (1Y+3, 2Y+1, 2Y+2,2Y+3, 3Y+1, 3Y+2 and sera tested for antibody titers by ELISA using the immunogens MVF-PD-L1 peptides. Sera (terminal) from rabbit (3Y+3) immunized with MVF-PD-1 peptide immunogens were tested individually versus the immunogen by ELISA. 200 ng/well peptide were used in duplicates to coat the ELISA plates. Titers are defined as the highest dilution of sera with an absorbance value of 0.2 after subtracting the blank.
For each peptide, vaccine antibodies were raised using New Zealand white rabbits purchased from Charles River Laboratories (Wilmington, MA, USA). […] Antibody titers were monitored by direct ELISA against the peptide immunogen, the peptide B cell epitope, and an acetylated version of the B-cell epitope. […] Peptide vaccine antibodies were purified by affinity chromatography using a protein A/G column and the concentration was measured by Coomassie protein assay. […]

Sequence	antibody titers
KLLSLIKGVIVHRLEGVEGPSLLIVYWEMEDKNIIQFVHG [PD-L1(36)]	> 32,000
KLLSLIKGVIVHRLEGVEGPSLFVHGEEDLKVQHSSYRQR [PD-L1(50)]	> 32,000
